Results deposited as PubChem BioAssay AID686938 (Drosophila RNAi Screening Center, 2013)

Aim: 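Knock-downs reducing store-operated calcium influx in Drosophila cells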 (primary screen)
Cell system: Drosophila S2R+ cells
Knock-down reagent: long dsRNA against Drosophila genes, about 0.25 µg dsRNA per well, roughly 10,000 cells
Time to read-out: 5 days of knock-down before the calcium assay
Challenge: thapsigargin (SERCA pump blocker) to empty calcium stores; entry signal taken 4 min after adding it
Measured: 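Duplicate raw fluo-4 intensities per well from a plate reader, at rest and four minutes after thapsigargin emptied calcium stores; entry-to-rest ratio filled for only some wells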
Reading the numbers: calcium entry signal: higher = stronger calcium signal after store depletion; entry to resting ratio: higher = more calcium entry relative to resting level; resting calcium signal: higher = higher resting calcium signal
Units: calcium entry signal in fluorescence units; resting calcium signal in fluorescence units
Rule for the call: 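Called when the plate z-score of the entry-to-rest ratio, mean of duplicates, falls below −3; wells with low overall dye signal (Fmax z below −2) or more than five off-targets excluded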
Meaning of the calls: active = strongly reduced calcium entry; inactive = no strong reduction
The deposit covers about 23,000 reagents; below is an unselected part of those that have a named target and a result. Of all reagents, 75 (0.33%) were called active. 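Raw plate signals without normalisation; calls rest on plate z-scores that were not deposited; ratio present for only 364 wells.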 A plus sign joins genes that one reagent is predicted to hit. The record does not give: the dose of the treatment.

What did the screen give for CG6567 + CG4565 [DRSC15599]?
calcium entry signal, replicate 1: 4.07e7; calcium entry signal, replicate 2: 3.72e7; resting calcium signal, replicate 1: 1.96e7; resting calcium signal, replicate 2: 1.93e7; Outcome: inactive

What is on record for Tina-1 [DRSC04317]?
calcium entry signal, replicate 1: 2.44e7; resting calcium signal, replicate 1: 1.28e7; Outcome: inactive

With CG1999 [DRSC18199], what was measured?
calcium entry signal, replicate 1: 4.27e7; calcium entry signal, replicate 2: 4.35e7; resting calcium signal, replicate 1: 1.89e7; resting calcium signal, replicate 2: 2.11e7; Outcome: inactive

What is on record for tank [DRSC00461]?
calcium entry signal, replicate 1: 2.93e7; calcium entry signal, replicate 2: 2.70e7; resting calcium signal, replicate 1: 1.43e7; resting calcium signal, replicate 2: 1.32e7; Outcome: inactive

For CG10979 [DRSC12153], what does the deposit list?
calcium entry signal, replicate 1: 4.51e7; calcium entry signal, replicate 2: 3.42e7; resting calcium signal, replicate 1: 2.19e7; resting calcium signal, replicate 2: 1.77e7; Outcome: inactive

What is on record for MED19 [DRSC10516]?
calcium entry signal, replicate 1: 3.08e7; calcium entry signal, replicate 2: 2.85e7; resting calcium signal, replicate 1: 2.61e7; resting calcium signal, replicate 2: 1.49e7; Outcome: inactive

How did the screen score dmrt99B [DRSC15045]?
calcium entry signal, replicate 1: 2.77e7; calcium entry signal, replicate 2: 3.16e7; resting calcium signal, replicate 1: 1.56e7; resting calcium signal, replicate 2: 1.81e7; Outcome: inactive

Which result is listed for dmrt99B [DRSC22977]?
calcium entry signal, replicate 1: 4.25e7; calcium entry signal, replicate 2: 3.47e7; resting calcium signal, replicate 1: 2.07e7; resting calcium signal, replicate 2: 1.52e7; Outcome: inactive

What did the screen give for CG31198 [DRSC15891]?
calcium entry signal, replicate 1: 2.71e7; calcium entry signal, replicate 2: 2.44e7; resting calcium signal, replicate 1: 1.35e7; resting calcium signal, replicate 2: 1.21e7; Outcome: inactive

Quoted from the entries so far, 4 entries:
CG10979 [DRSC12153] → calcium entry signal, replicate 1: 4.51e7; calcium entry signal, replicate 2: 3.42e7; resting calcium signal, replicate 1: 2.19e7; resting calcium signal, replicate 2: 1.77e7; Outcome: inactive
MED19 [DRSC10516] → calcium entry signal, replicate 1: 3.08e7; calcium entry signal, replicate 2: 2.85e7; resting calcium signal, replicate 1: 2.61e7; resting calcium signal, replicate 2: 1.49e7; Outcome: inactive
dmrt99B [DRSC15045] → calcium entry signal, replicate 1: 2.77e7; calcium entry signal, replicate 2: 3.16e7; resting calcium signal, replicate 1: 1.56e7; resting calcium signal, replicate 2: 1.81e7; Outcome: inactive
dmrt99B [DRSC22977] → calcium entry signal, replicate 1: 4.25e7; calcium entry signal, replicate 2: 3.47e7; resting calcium signal, replicate 1: 2.07e7; resting calcium signal, replicate 2: 1.52e7; Outcome: inactive

Further records:
With TTLL4A [DRSC02528], what was measured?
calcium entry signal, replicate 1: 3.81e7; resting calcium signal, replicate 1: 1.69e7; Outcome: inactive

What did the screen give for schuy [DRSC10284]?
calcium entry signal, replicate 1: 3.22e7; calcium entry signal, replicate 2: 5.44e7; resting calcium signal, replicate 1: 1.50e7; resting calcium signal, replicate 2: 2.13e7; Outcome: inactive

For Acsf3 [DRSC18146], what was measured?
calcium entry signal, replicate 1: 4.07e7; calcium entry signal, replicate 2: 4.47e7; resting calcium signal, replicate 1: 1.94e7; resting calcium signal, replicate 2: 1.98e7; Outcome: inactive

How did the screen score beat-Vb [DRSC12940]?
calcium entry signal, replicate 1: 1.77e7; calcium entry signal, replicate 2: 2.76e7; resting calcium signal, replicate 1: 9.09e6; resting calcium signal, replicate 2: 1.21e7; Outcome: inactive

What did the screen give for beat-Vb [DRSC14844]?
calcium entry signal, replicate 1: 4.78e7; calcium entry signal, replicate 2: 2.71e7; resting calcium signal, replicate 1: 1.97e7; resting calcium signal, replicate 2: 1.49e7; Outcome: inactive

For beat-Vb [DRSC14845], what was measured?
calcium entry signal, replicate 1: 3.75e7; calcium entry signal, replicate 2: 3.40e7; resting calcium signal, replicate 1: 1.80e7; resting calcium signal, replicate 2: 1.86e7; Outcome: inactive

What did the screen give for CG15765 [DRSC18071]?
calcium entry signal, replicate 1: 3.15e7; calcium entry signal, replicate 2: 3.41e7; resting calcium signal, replicate 1: 1.51e7; resting calcium signal, replicate 2: 1.80e7; Outcome: inactive

Which result is listed for CG15765 [DRSC23026]?
calcium entry signal, replicate 1: 3.92e7; calcium entry signal, replicate 2: 3.55e7; resting calcium signal, replicate 1: 1.89e7; resting calcium signal, replicate 2: 1.70e7; Outcome: inactive

What did the screen give for kto [DRSC10983]?
calcium entry signal, replicate 1: 3.41e7; calcium entry signal, replicate 2: 3.84e7; resting calcium signal, replicate 1: 1.63e7; resting calcium signal, replicate 2: 2.55e7; Outcome: inactive

With Arp3 [DRSC09669], what was measured?
calcium entry signal, replicate 1: 5.14e7; calcium entry signal, replicate 2: 4.14e7; resting calcium signal, replicate 1: 3.47e7; resting calcium signal, replicate 2: 1.66e7; Outcome: inactive

What is on record for CG15098 [DRSC06527]?
calcium entry signal, replicate 1: 2.43e7; calcium entry signal, replicate 2: 2.58e7; resting calcium signal, replicate 1: 1.71e7; resting calcium signal, replicate 2: 1.45e7; Outcome: inactive

For Ctl1 [DRSC08303], what was measured?
calcium entry signal, replicate 1: 3.15e7; calcium entry signal, replicate 2: 3.08e7; resting calcium signal, replicate 1: 1.67e7; resting calcium signal, replicate 2: 1.57e7; Outcome: inactive

For CG11381 [DRSC17780], how do the results read?
calcium entry signal, replicate 1: 4.91e7; calcium entry signal, replicate 2: 8.32e7; entry to resting ratio: 2; resting calcium signal, replicate 1: 2.52e7; resting calcium signal, replicate 2: 3.52e7; Outcome: inactive

With Adgf-C [DRSC16473], what was measured?
calcium entry signal, replicate 1: 3.11e7; calcium entry signal, replicate 2: 4.77e7; resting calcium signal, replicate 1: 1.58e7; resting calcium signal, replicate 2: 6.86e7; Outcome: inactive

For Npc1a [DRSC03378], what was measured?
calcium entry signal, replicate 1: 4.01e7; calcium entry signal, replicate 2: 4.88e7; resting calcium signal, replicate 1: 1.86e7; resting calcium signal, replicate 2: 2.10e7; Outcome: inactive

How did the screen score CG9498 [DRSC03235]?
calcium entry signal, replicate 1: 3.01e7; calcium entry signal, replicate 2: 4.06e7; resting calcium signal, replicate 1: 1.61e7; resting calcium signal, replicate 2: 2.04e7; Outcome: inactive

Which result is listed for CG9328 [DRSC03203]?
calcium entry signal, replicate 1: 2.46e7; resting calcium signal, replicate 1: 1.20e7; Outcome: inactive

How did the screen score lft [DRSC02236]?
calcium entry signal, replicate 1: 3.28e7; calcium entry signal, replicate 2: 4.58e7; resting calcium signal, replicate 1: 1.58e7; resting calcium signal, replicate 2: 1.85e7; Outcome: inactive
